Drawing on PMC12824153, this text covers binding for 1 substance.

Chains of the proteins cited; added tags and fusions are not shown.
UniProt Q8NEV1: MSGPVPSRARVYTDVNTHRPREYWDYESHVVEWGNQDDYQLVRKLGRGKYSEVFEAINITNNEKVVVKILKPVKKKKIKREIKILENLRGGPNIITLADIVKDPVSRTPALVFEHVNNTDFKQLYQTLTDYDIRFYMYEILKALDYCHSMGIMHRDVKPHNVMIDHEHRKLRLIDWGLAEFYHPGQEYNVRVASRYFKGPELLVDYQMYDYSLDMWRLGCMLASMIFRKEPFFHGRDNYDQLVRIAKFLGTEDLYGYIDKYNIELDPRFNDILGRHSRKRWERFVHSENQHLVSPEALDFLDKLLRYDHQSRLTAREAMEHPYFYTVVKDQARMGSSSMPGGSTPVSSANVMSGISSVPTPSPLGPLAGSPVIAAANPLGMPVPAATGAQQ

No constants are given. Whether binding was seen depends on the method and setting. In cells and extracts the contact can be indirect. Here binding means that the protein was enriched with, or labelled near, the bait; the list need not be complete.

For the assay, the target named is T1, SFB-IKKβ (kappa-B kinase subunit beta) (UniProt O14920).
T1 sequence: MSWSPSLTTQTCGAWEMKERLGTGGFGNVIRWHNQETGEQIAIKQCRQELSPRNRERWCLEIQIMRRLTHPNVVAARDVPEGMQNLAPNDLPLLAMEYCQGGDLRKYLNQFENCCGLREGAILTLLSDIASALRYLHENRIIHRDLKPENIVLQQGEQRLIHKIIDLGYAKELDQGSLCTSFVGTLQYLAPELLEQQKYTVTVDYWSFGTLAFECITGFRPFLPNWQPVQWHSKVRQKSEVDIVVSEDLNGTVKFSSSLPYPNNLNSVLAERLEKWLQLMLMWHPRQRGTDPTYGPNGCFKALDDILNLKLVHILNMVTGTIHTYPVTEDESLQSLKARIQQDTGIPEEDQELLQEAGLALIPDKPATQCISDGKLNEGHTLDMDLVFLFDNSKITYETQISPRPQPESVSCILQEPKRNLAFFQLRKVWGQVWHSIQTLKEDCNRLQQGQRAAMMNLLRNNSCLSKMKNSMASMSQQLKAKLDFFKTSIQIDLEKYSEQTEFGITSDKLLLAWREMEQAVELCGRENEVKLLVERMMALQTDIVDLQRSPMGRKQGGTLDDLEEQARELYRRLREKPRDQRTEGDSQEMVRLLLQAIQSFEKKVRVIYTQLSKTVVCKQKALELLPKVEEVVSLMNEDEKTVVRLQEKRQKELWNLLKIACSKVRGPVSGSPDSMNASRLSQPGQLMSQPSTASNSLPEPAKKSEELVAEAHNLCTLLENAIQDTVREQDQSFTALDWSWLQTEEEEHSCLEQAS
The assay is described as follows: affinity purification with mass spectrometry; SFB-IKKβ complexes immunoprecipitated from A549 cells at 0 kPa or 5 kPa compression (1 h); SDS-PAGE, trypsin digestion, LC-MS/MS, LFQ with MaxQuant.

For “casein kinase II subunit alpha 3 (CSK23), endogenous (from UniProt Q8NEV1 1-391) (enzyme)”, the binding entry is given as “binds”.
